Laboratory results: PMC3816256, “Sgol2 provides a regulatory platform that coordinates essential cell cycle processes during meiosis I in oocytes” (eLife, 2013)
Substitutions are numbered along the chain they refer to. These are yes or no findings as the source states them, for the method shown. Binding calls can cover weak binding; strength is not graded here.

Legend:
Test in all cases: far-Western, overlay or dot blot; far-western blot of Sgol2 fragments 120-180 with Mad2; which partner was on the membrane is not stated
[1] = target: T1, Sgol2 fragment spanning amino-acid residues 120-180, H150A (mouse) (UniProt Q7TSY8)
T1 sequence: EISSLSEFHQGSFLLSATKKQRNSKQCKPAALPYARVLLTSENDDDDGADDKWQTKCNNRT

[2] = target: T2, Sgol2 fragment spanning amino-acid residues 120-180, H150E (mouse) (UniProt Q7TSY8)
T2 sequence: T1 sequence with A31E

[3] = target: T3, Sgol2 fragment spanning amino-acid residues 120-180, wild type MIM (mouse) (UniProt Q7TSY8)
T3 sequence: T1 sequence with A31H

Measured: binding

Mad2
binds: [1] | [2] | [3]
